# Measured values from PubChem BioAssay AID493014 (National Center for Advancing Translational Sciences (NCATS), 2011).
# This is one part of the list. Shown are side measurements of this screen, not its main read-out; they come without a call. Compounds called inactive in the main read-out are mostly missing here. Potencies come from curve fits of mixed quality, noted in brackets.
# Test: qHTS Assay to Find Inhibitors of Chronic Active B-Cell Receptor Signaling
# Conditions: ABC-DLBCL IkBa-CBG/CBR reporter, luminescence ratio (green luciferase fused to IkBa over red control in TMD8 lymphoma cells), 4 h
# Procedure, shortened: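 Doxycycline induced both beetle luciferases in TMD8 lymphoma cells; IKK-driven degradation limits the IkappaBalpha-fused green signal, while red luminescence normalises for cell number and nonspecific effects. Compounds tested up to 46 uM, 4 hrs.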
# [1] = measured here: CBR red luminescence, cell number
# [2] = measured here: IkBa-CBG green luminescence
Compound,AC50 [1],AC50 [2]
CC(C)P(=O)(c1cccc(C(=O)O)c1)C(C)C,"7.31 µM [rising, partial curve, poor fit]",–
Cc1ccc(N=c2c([N+](=O)[O-])nn(-c3ccccc3)n2O)c(C)c1,"0.58 µM [falling, full curve, poor fit]",–
C/C(=N\NC(=O)c1ccccc1)c1ccc(-n2ccnc2)cc1,"9.2 µM [falling, partial curve]",–
CCOC(=O)c1csc(NC(=O)CSc2nnnn2-c2cccc(OC)c2)n1,"0.00517 µM [falling, full curve, poor fit]",–
Cc1ccc(Nc2nc(N)c([N+](=O)[O-])c(NCCO)n2)cc1,"0.355 µM [falling, full curve, poor fit]",–
COc1ccc(CN2C(=O)CNC2=S)cc1,"3.16 µM [falling, partial curve, poor fit]",–
O=c1c2cc(Cl)ccc2[nH]c(=S)n1Cc1cccs1,"29.1 µM [rising, single point]",–
CCOC(=O)c1sc(NS(=O)(=O)c2ccc(NC(C)=O)cc2)nc1C,"6.51 µM [falling, single point]",–
COCCCNC(=O)c1sc2ncnc(N3CCc4ccccc4C3)c2c1C,"0.116 µM [falling, full curve, poor fit]",–
O=C(c1cc2ccccc2oc1=O)N1CCOCC1,"35.5 µM [falling, single point]",–
CCOC(=O)C1CCCN(C(=O)c2sc3nc(-c4ccccc4)cn3c2C)C1 (configuration not stated),"6.31 µM [falling, partial curve, poor fit]",–
C=CCn1c(C2CCCCC2)n[nH]c1=S,"0.562 µM [rising, full curve, poor fit]",–
Cc1ccc(-c2ccccc2)n1-c1ccc(C(=O)O)cc1,"16.4 µM [falling, partial curve]",–
COc1ccc(NC(=S)N2CCN(C(c3ccccc3)c3ccccc3)CC2)cc1OC,"36.6 µM [falling, partial curve, poor fit]",–
CCc1nnc(NC(=O)C2c3ccccc3Oc3ccccc32)s1,"0.0116 µM [falling, full curve, poor fit]",–
Clc1cccc2sc(N3CCCCC3)nc12,"3.26 µM [rising, partial curve, poor fit]",–
COc1ccc(-c2csc(NC(=O)C3=COCCO3)n2)c(OC)c1,"0.82 µM [rising, full curve]",–
Cc1nc2nc(-c3ccc(Cl)cc3)[nH]n2c(=O)c1Cc1ccccc1,"0.731 µM [falling, full curve]",–
COC(=O)c1ccc2c(=O)n(CCCCCC(=O)NCCc3ccc(Cl)cc3)c(=O)[nH]c2c1,"5.01 µM [falling, partial curve, poor fit]",–
CCNc1ccc(C(=O)O)cc1N,"8.2 µM [falling, partial curve]",–
O=C(NC(=S)NC(c1ccccc1)c1ccncc1)c1ccccc1 (configuration not stated),"29.1 µM [falling, single point]",–
CCOc1c(Br)cc(C(N)=O)cc1OC,"31.6 µM [rising, single point]",–

# Part of the list above in order of molecular weight, falling:
Compound,AC50 [1],AC50 [2]
COC(=O)c1ccc2c(=O)n(CCCCCC(=O)NCCc3ccc(Cl)cc3)c(=O)[nH]c2c1,"5.01 µM [falling, partial curve, poor fit]",–
COc1ccc(NC(=S)N2CCN(C(c3ccccc3)c3ccccc3)CC2)cc1OC,"36.6 µM [falling, partial curve, poor fit]",–
CCOC(=O)C1CCCN(C(=O)c2sc3nc(-c4ccccc4)cn3c2C)C1 (configuration not stated),"6.31 µM [falling, partial curve, poor fit]",–
COCCCNC(=O)c1sc2ncnc(N3CCc4ccccc4C3)c2c1C,"0.116 µM [falling, full curve, poor fit]",–
CCOC(=O)c1sc(NS(=O)(=O)c2ccc(NC(C)=O)cc2)nc1C,"6.51 µM [falling, single point]",–
Cc1nc2nc(-c3ccc(Cl)cc3)[nH]n2c(=O)c1Cc1ccccc1,"0.731 µM [falling, full curve]",–
COc1ccc(-c2csc(NC(=O)C3=COCCO3)n2)c(OC)c1,"0.82 µM [rising, full curve]",–
O=C(NC(=S)NC(c1ccccc1)c1ccncc1)c1ccccc1 (configuration not stated),"29.1 µM [falling, single point]",–
CCc1nnc(NC(=O)C2c3ccccc3Oc3ccccc32)s1,"0.0116 µM [falling, full curve, poor fit]",–
Cc1ccc(N=c2c([N+](=O)[O-])nn(-c3ccccc3)n2O)c(C)c1,"0.58 µM [falling, full curve, poor fit]",–
O=c1c2cc(Cl)ccc2[nH]c(=S)n1Cc1cccs1,"29.1 µM [rising, single point]",–
C/C(=N\NC(=O)c1ccccc1)c1ccc(-n2ccnc2)cc1,"9.2 µM [falling, partial curve]",–
Cc1ccc(-c2ccccc2)n1-c1ccc(C(=O)O)cc1,"16.4 µM [falling, partial curve]",–
CCOc1c(Br)cc(C(N)=O)cc1OC,"31.6 µM [rising, single point]",–
O=C(c1cc2ccccc2oc1=O)N1CCOCC1,"35.5 µM [falling, single point]",–
CC(C)P(=O)(c1cccc(C(=O)O)c1)C(C)C,"7.31 µM [rising, partial curve, poor fit]",–
Clc1cccc2sc(N3CCCCC3)nc12,"3.26 µM [rising, partial curve, poor fit]",–
COc1ccc(CN2C(=O)CNC2=S)cc1,"3.16 µM [falling, partial curve, poor fit]",–
C=CCn1c(C2CCCCC2)n[nH]c1=S,"0.562 µM [rising, full curve, poor fit]",–
CCNc1ccc(C(=O)O)cc1N,"8.2 µM [falling, partial curve]",–

# Next results follow:

Compound,AC50 [1],AC50 [2]
CCOc1ccc(S(=O)(=O)Nc2ccc(C(=O)NN)cc2)cc1,"12.6 µM [falling, partial curve, poor fit]",–
CC(=O)c1c(C)[nH]c(C(=O)OCc2nc3ccsc3c(=O)[nH]2)c1C,"8.2 µM [rising, partial curve, poor fit]",–
CCOC(=O)c1cccc(NC(=O)CN(c2ccc(C)cc2)S(=O)(=O)c2c(C)n[nH]c2C)c1,"5.62 µM [falling, partial curve]",–
CS(=O)(=O)N1CCc2cc(C(=O)Nc3cccc([N+](=O)[O-])c3)ccc21,"0.794 µM [rising, full curve, poor fit]",–
Cc1[nH]nc2c1C(C1CC=CCC1)C(C#N)=C(N)O2 (configuration not stated),"3.26 µM [falling, partial curve]",–
O=C(Cc1ccccc1)NNC(=S)NC(=O)c1cccs1,"7.08 µM [falling, partial curve]",–
CCN(c1cccc(C)c1)S(=O)(=O)c1cc(CN2C(=O)c3cccnc3C2=O)ccc1OC,"5.62 µM [falling, full curve, poor fit]",–
Cc1ccc(-c2nc(CS(=O)(=O)CC(=O)NC3CCC(C)CC3)c(C)o2)cc1 (configuration not stated),"35.5 µM [falling, single point]",–
COc1c(Cl)ccc(Cl)c1C(=O)NC(=O)Nc1nc(C)cc(C)n1,"0.501 µM [falling, full curve]",–
CCN1CCCC1CNC(=O)c1cc2c(C)nc3ccccc3c2o1 (configuration not stated),"7.94 µM [falling, partial curve]",–
O=C1CCCC2=C1C(c1cccc(O)c1)c1c(ccc3ncccc13)N2 (configuration not stated),–,"10 µM [falling, partial curve, poor fit]"
O/N=C/c1ccc(OCc2ccccc2F)c(Cl)c1,"1.46 µM [rising, full curve, poor fit]",–
Cc1ccccc1OCc1nc2ccccc2c(=O)n1/N=C/c1cn[nH]c1-c1ccccc1,"23.1 µM [falling, partial curve]",–
O=[N+]([O-])c1cc(C(F)(F)F)cc([N+](=O)[O-])c1NCCNC(=S)Nc1cccc(F)c1,"35.5 µM [falling, single point]",–
COc1ccc(CC(=O)NCc2n[nH]c(=S)n2-c2ccccc2OC)cc1,"3.16 µM [falling, full curve, poor fit]",–
COc1ccccc1N1CCN(C(c2cccs2)C(C)NC(=O)c2ccco2)CC1 (configuration not stated),"0.282 µM [rising, full curve, poor fit]",–
C=CCNC(=O)c1ccc(C)cc1Cl,"3.55 µM [rising, full curve, poor fit]",–
Cc1cccc2sc(NC(=O)c3ccc(Cl)s3)nc12,"4.11 µM [falling, partial curve]",–
COC(=O)c1ccc(Oc2ccc3nnc(C)n3n2)cc1,"12.6 µM [rising, single point]",–
CN1C(c2ccccc2)CC(=NO)CC1c1ccccc1 (configuration not stated),"1.78 µM [rising, full curve, poor fit]",–
CC(C)CNC(=O)c1c(N)n(/N=C/c2cccnc2)c2nc3ccccc3nc12,"0.461 µM [falling, full curve, poor fit]",–
COc1ccc(-n2nc3cc(N)c(Br)cc3n2)cc1,"8.91 µM [rising, partial curve]",–

Compound,AC50 [1],AC50 [2]
O=C1NC(Cc2ccccc2)c2nc3cc(F)ccc3c(=O)n2-c2ccc(Cl)cc21 (configuration not stated),"23.1 µM [falling, partial curve, poor fit]",–
COc1cc(OC)c(C2N(C)c3ccccc3N2C)cc1OC,"0.517 µM [falling, full curve, poor fit]",–
CCc1cc(=O)oc2cc(C)cc(O)c12,"2.31 µM [rising, full curve]","5.17 µM [falling, partial curve, poor fit]"
Cn1nnnc1Sc1ncnc2scc(-c3ccccc3Br)c12,"14.6 µM [falling, partial curve, poor fit]",–
Nc1ncn(CC(=O)c2ccccc2)n1,"35.5 µM [rising, single point]",–
O=C(CCn1c(=O)[nH]c2ccsc2c1=O)Nc1ccc(F)c(F)c1,"1.41 µM [falling, full curve, poor fit]",–
CCOc1ccc(NC(=O)c2ccccc2OCC(=O)c2ccccc2)cc1,"1.3 µM [falling, full curve, poor fit]",–
CCn1cc([N+](=O)[O-])c(C(=O)Nc2nc(-c3ccc(C)c(C)c3)c(C)s2)n1,"4.47 µM [falling, full curve, poor fit]",–
COCCN(CCOC)C(=O)N1CCOCC1,"17.8 µM [falling, single point]",–
O=C(O)c1cc(N/N=C/C(Cl)=C/c2ccccc2)ccc1Cl,"6.31 µM [falling, partial curve]",–
CCOc1ncccc1C(=O)OCC(=O)Nc1ccc2c(c1)CCC2,"16.4 µM [falling, partial curve]",–
Cc1ccccc1/C=N/Nc1ccc(Cl)nn1,"35.5 µM [rising, partial curve, poor fit]",–
COC(=O)c1sccc1NC(=O)CSc1ccc(Cl)cc1,"6.31 µM [falling, partial curve]",–
CCOC(=O)C1=Nc2ccccc2C1=[N+]=[N-],"4.11 µM [rising, partial curve, poor fit]",–
C/C=C/c1ccc(OCCn2nnc3ccccc32)c(OC)c1,"7.08 µM [rising, partial curve, poor fit]",–
CSCCC(NC(=O)COc1ccccc1)C(=O)N(C)CC(=O)Nc1ccc(Cl)cc1 (configuration not stated),"29.1 µM [falling, single point]",–
CCc1cc(-c2n[nH]c(C)c2Oc2ccc(C(C)C)cc2)c(O)cc1O,"32.6 µM [rising, single point]",–
Cc1ccc(C)c(N2CCN(C(=O)CCC(=O)N3CCOc4ccc(Cl)cc43)CC2)c1,"7.08 µM [falling, partial curve]",–
CCOc1cccc(C(=O)Nc2cnn(Cc3ccccc3)c2)c1,"7.94 µM [falling, partial curve]",–
CN(C)/C=N/c1ncc(C(=O)c2ccc(Cl)cc2)s1,"29.1 µM [falling, single point]",–
COc1ccccc1NC(=O)c1cnc(SCC(=O)N2CCOCC2)n(C)c1=O,"2.24 µM [falling, full curve]",–
COc1ccc(CC(=O)Nc2cccc(C(=O)Nc3ccccc3C(=O)O)c2)cc1OC,"10 µM [falling, partial curve]",–
